Measurements reported in the supplement of paper PMC11438910.
The list shows a part of the results. Only a few entries rise above the background.

Assays:
Assay in all cases: fluorescence intensity of antibody binding to polysaccharide-coupled beads; higher = stronger binding
[1] = target: pneumococcal polysaccharide Pn15B
[2] = target: pneumococcal polysaccharide Pn15C
[3] = target: pneumococcal polysaccharide Pn15F
[4] = target: pneumococcal polysaccharide Pn16A
[5] = target: pneumococcal polysaccharide Pn16F
[6] = target: pneumococcal polysaccharide Pn17A
[7] = target: pneumococcal polysaccharide Pn17F
[8] = target: pneumococcal polysaccharide Pn18A
[9] = target: pneumococcal polysaccharide Pn18B
[10] = target: pneumococcal polysaccharide Pn18C
[11] = target: pneumococcal polysaccharide Pn18F
[12] = target: pneumococcal polysaccharide Pn19A
[13] = antibody concentration 2337.65 ng/mL
[14] = antibody concentration 12500 ng/mL
[15] = antibody concentration 0.1 ng/mL
[16] = antibody concentration 0.534724 ng/mL
[17] = antibody concentration 2.8593 ng/mL
[18] = antibody concentration 15.2894 ng/mL
[19] = antibody concentration 81.7561 ng/mL
[20] = antibody concentration 437.17 ng/mL

B1: 4-99.1 (protein)
chain 1: QVQLQESGPGLVKPSETLSLTCAVSGDSISSGYFWGWIRQPPGKGLEYIGYISGESGNTYDNPSLKSRVTISKDTSKNQFSLNLRSVTAADTAVYYCARRTVYIGFDYWGQGVLVTVSS
chain 2: QAAPTQPPSVSGSPGQSVTISCTGTSSDIGYYNAVSWYQQHPGKAPKLMIYEVSKRPSGVSDRFSGSKSGTTASLTISGLQAEDEADYYCSSYAGTNTYIFGAGTRLTVL
**Q.** Which fluorescence intensity [1, 13] does the source give for B1 here?
**A.** 25.5 MFI

**Q.** What about the fluorescence intensity [1, 14] of the same binder?
**A.** 28.5 MFI

**Q.** And the fluorescence intensity [2, 15]?
**A.** 17.5 MFI

**Q.** What about the fluorescence intensity [2, 16] of the same binder?
**A.** 17.5 MFI

**Q.** What about the fluorescence intensity [2, 17] of the same binder?
**A.** 17 MFI

**Q.** What about the fluorescence intensity [2, 18] of the same binder?
**A.** 18.5 MFI

**Q.** What about the fluorescence intensity [2, 19] of the same binder?
**A.** 16.5 MFI

**Q.** And the fluorescence intensity [2, 20]?
**A.** 18.2 MFI

**Q.** And the fluorescence intensity [2, 13]?
**A.** 23 MFI

**Q.** What about the fluorescence intensity [2, 14] of the same binder?
**A.** 30 MFI

**Q.** What about the fluorescence intensity [3, 15] of the same binder?
**A.** 18.5 MFI

**Q.** And the fluorescence intensity [3, 16]?
**A.** 16.8 MFI

**Q.** And the fluorescence intensity [3, 17]?
**A.** 18.2 MFI

**Q.** What about the fluorescence intensity [3, 18] of the same binder?
**A.** 17 MFI

**Q.** And the fluorescence intensity [3, 19]?
**A.** 17 MFI

**Q.** And the fluorescence intensity [3, 20]?
**A.** 17.5 MFI

**Q.** And the fluorescence intensity [3, 13]?
**A.** 21 MFI

**Q.** And the fluorescence intensity [3, 14]?
**A.** 33.5 MFI

**Q.** What about the fluorescence intensity [4, 15] of the same binder?
**A.** 15 MFI

**Q.** What about the fluorescence intensity [4, 16] of the same binder?
**A.** 15.2 MFI

**Q.** And the fluorescence intensity [4, 17]?
**A.** 14.2 MFI

**Q.** And the fluorescence intensity [4, 18]?
**A.** 16 MFI

**Q.** What about the fluorescence intensity [4, 19] of the same binder?
**A.** 14.5 MFI

**Q.** And the fluorescence intensity [4, 20]?
**A.** 15.5 MFI

**Q.** What about the fluorescence intensity [4, 13] of the same binder?
**A.** 18 MFI

**Q.** What about the fluorescence intensity [4, 14] of the same binder?
**A.** 34.5 MFI

**Q.** What about the fluorescence intensity [5, 15] of the same binder?
**A.** 22.5 MFI

**Q.** What about the fluorescence intensity [5, 16] of the same binder?
**A.** 24 MFI

**Q.** And the fluorescence intensity [5, 17]?
**A.** 24.8 MFI

**Q.** What about the fluorescence intensity [5, 18] of the same binder?
**A.** 24.8 MFI

**Q.** What about the fluorescence intensity [5, 19] of the same binder?
**A.** 25 MFI

**Q.** And the fluorescence intensity [5, 20]?
**A.** 25.5 MFI

**Q.** And the fluorescence intensity [5, 13]?
**A.** 29 MFI

**Q.** What about the fluorescence intensity [5, 14] of the same binder?
**A.** 41.8 MFI

**Q.** What about the fluorescence intensity [6, 15] of the same binder?
**A.** 21 MFI

**Q.** What about the fluorescence intensity [6, 16] of the same binder?
**A.** 21 MFI

**Q.** What about the fluorescence intensity [6, 17] of the same binder?
**A.** 20.5 MFI

**Q.** And the fluorescence intensity [6, 18]?
**A.** 22 MFI

**Q.** And the fluorescence intensity [6, 19]?
**A.** 22 MFI

**Q.** And the fluorescence intensity [6, 20]?
**A.** 22 MFI

**Q.** And the fluorescence intensity [6, 13]?
**A.** 22 MFI

**Q.** What about the fluorescence intensity [6, 14] of the same binder?
**A.** 29.2 MFI

**Q.** And the fluorescence intensity [7, 15]?
**A.** 26.5 MFI

**Q.** What about the fluorescence intensity [7, 16] of the same binder?
**A.** 26.5 MFI

**Q.** What about the fluorescence intensity [7, 17] of the same binder?
**A.** 26.5 MFI

**Q.** And the fluorescence intensity [7, 18]?
**A.** 27.5 MFI

**Q.** What about the fluorescence intensity [7, 19] of the same binder?
**A.** 26.5 MFI

**Q.** And the fluorescence intensity [7, 20]?
**A.** 26.5 MFI

**Q.** What about the fluorescence intensity [7, 13] of the same binder?
**A.** 27.2 MFI

**Q.** What about the fluorescence intensity [7, 14] of the same binder?
**A.** 33.5 MFI

**Q.** What about the fluorescence intensity [8, 15] of the same binder?
**A.** 24.5 MFI

**Q.** And the fluorescence intensity [8, 16]?
**A.** 24 MFI

**Q.** And the fluorescence intensity [8, 17]?
**A.** 23.5 MFI

**Q.** And the fluorescence intensity [8, 18]?
**A.** 24.5 MFI

**Q.** What about the fluorescence intensity [8, 19] of the same binder?
**A.** 24 MFI

**Q.** And the fluorescence intensity [8, 20]?
**A.** 24 MFI

**Q.** And the fluorescence intensity [8, 13]?
**A.** 26 MFI

**Q.** What about the fluorescence intensity [8, 14] of the same binder?
**A.** 36.2 MFI

**Q.** And the fluorescence intensity [9, 15]?
**A.** 30.5 MFI

**Q.** What about the fluorescence intensity [9, 16] of the same binder?
**A.** 29.5 MFI

**Q.** And the fluorescence intensity [9, 17]?
**A.** 29.2 MFI

**Q.** What about the fluorescence intensity [9, 18] of the same binder?
**A.** 29.5 MFI

**Q.** And the fluorescence intensity [9, 19]?
**A.** 30.8 MFI

**Q.** And the fluorescence intensity [9, 20]?
**A.** 32 MFI

**Q.** What about the fluorescence intensity [9, 13] of the same binder?
**A.** 35 MFI

**Q.** What about the fluorescence intensity [9, 14] of the same binder?
**A.** 43 MFI

**Q.** What about the fluorescence intensity [10, 15] of the same binder?
**A.** 19 MFI

**Q.** And the fluorescence intensity [10, 16]?
**A.** 19.2 MFI

**Q.** What about the fluorescence intensity [10, 17] of the same binder?
**A.** 19 MFI

**Q.** What about the fluorescence intensity [10, 18] of the same binder?
**A.** 20 MFI

**Q.** What about the fluorescence intensity [10, 19] of the same binder?
**A.** 17.8 MFI

**Q.** What about the fluorescence intensity [10, 20] of the same binder?
**A.** 22.8 MFI

**Q.** What about the fluorescence intensity [10, 13] of the same binder?
**A.** 25.2 MFI

**Q.** And the fluorescence intensity [10, 14]?
**A.** 35 MFI

**Q.** And the fluorescence intensity [11, 15]?
**A.** 23.5 MFI

**Q.** What about the fluorescence intensity [11, 16] of the same binder?
**A.** 23.5 MFI

**Q.** And the fluorescence intensity [11, 17]?
**A.** 24.5 MFI

**Q.** What about the fluorescence intensity [11, 18] of the same binder?
**A.** 23 MFI

**Q.** And the fluorescence intensity [11, 19]?
**A.** 24.2 MFI

**Q.** What about the fluorescence intensity [11, 20] of the same binder?
**A.** 25.5 MFI

**Q.** And the fluorescence intensity [11, 13]?
**A.** 28 MFI

**Q.** And the fluorescence intensity [11, 14]?
**A.** 37 MFI

**Q.** What about the fluorescence intensity [12, 15] of the same binder?
**A.** 18.2 MFI

**Q.** What about the fluorescence intensity [12, 16] of the same binder?
**A.** 19 MFI

**Q.** What about the fluorescence intensity [12, 17] of the same binder?
**A.** 15.8 MFI

**Q.** And the fluorescence intensity [12, 18]?
**A.** 19 MFI

**Q.** And the fluorescence intensity [12, 19]?
**A.** 19.5 MFI

**Q.** And the fluorescence intensity [12, 20]?
**A.** 20 MFI

**Q.** What about the fluorescence intensity [12, 13] of the same binder?
**A.** 20 MFI

**Q.** And the fluorescence intensity [12, 14]?
**A.** 35.5 MFI
